No constants are given. Whether binding was seen depends on the method and setting. For part of these data: A result given as binding can be weak or reduced; the word gives no strength. For part of these data: In cells and extracts the contact can be indirect.
T1: mouse DNase X on bone marrow-derived macrophages (BMDMs) of wild-type mice (mouse (endogenous in BMDMs)) (UniProt Q9D7J6)
T1 sequence: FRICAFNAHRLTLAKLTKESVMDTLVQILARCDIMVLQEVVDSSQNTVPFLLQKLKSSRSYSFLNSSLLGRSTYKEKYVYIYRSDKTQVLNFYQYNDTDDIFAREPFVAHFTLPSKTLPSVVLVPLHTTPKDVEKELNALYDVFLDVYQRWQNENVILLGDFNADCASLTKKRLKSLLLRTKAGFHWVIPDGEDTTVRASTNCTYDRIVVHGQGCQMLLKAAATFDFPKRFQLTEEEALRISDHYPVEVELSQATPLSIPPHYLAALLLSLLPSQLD

B1: native human DNase X from THP-1 cell lysate (protein, UniProt P49184 19-302)
chain: FRICAFNAQRLTLAKVAREQVMDTLVRILARCDIMVLQEVVDSSGSAIPLLLRELNRFDGSGPYSTLSSPQLGRSTYMETYVYFYRSHKTQVLSSYVYNDEDDVFAREPFVAQFSLPSNVLPSLVLVPLHTTPKAVEKELNALYDVFLEVSQHWQSKDVILLGDFNADCASLTKKRLDKLELRTEPGFHWVIADGEDTTVRASTHCTYDRVVLHGERCRSLLHTAAAFDFPTSFQLTEEEALNISDHYPVEVELKLSQAHSVQPLSLTVLLLLSLLSPQLCPAA

How the values were obtained:
[1] = target: T1, mouse DNase X on bone marrow-derived macrophages (BMDMs) of wild-type mice (mouse (endogenous in BMDMs)); assay: binding of protein-coated latex beads to cells (fluorescence microscopy); rEtpE-C-coated 0.5 um fluorescent beads incubated with BMDMs from wild-type or DNase X-/- mice for 30 min at 4°C, washed, fixed without trypsin treatment; only the binder purified
[2] = target: rEtpE-C, recombinant C-terminal fragment of EtpE (ECH1038) with a C-terminal histidine tag (E. chaffeensis (Arkansas strain)); assay: pull-down; His-tagged rEtpE-C bound to and renatured on Ni-affinity matrix; THP-1 cell lysate in NP-40 lysis buffer, 8 h at 4°C; eluted with 250 mM imidazole; Western blot with anti-DNase X; only the target purified
[3] = target: rECH0825, recombinant E. chaffeensis type IV secretion effector protein ECH0825 (E. chaffeensis); assay: as above
[4] = target: rEtpE-C, recombinant C-terminal fragment of EtpE (ECH1038) with a C-terminal histidine tag (E. chaffeensis (Arkansas strain)); assay: far-Western; 5 ug rEtpE-C and rECH0825 separated by SDS-PAGE, transferred to nitrocellulose and renatured with serial guanidinium-HCl treatment, incubated with THP-1 cell lysate in NP-40 lysis buffer; detected with anti-DNase X; only the target purified
[5] = target: rECH0825, recombinant E. chaffeensis type IV secretion effector protein ECH0825 (E. chaffeensis); assay: as above
[6] = target: native EtpE (ECH1038) of E. chaffeensis (E. chaffeensis (Arkansas strain)); assay: co-IP; THP-1 cells incubated with E. chaffeensis for 30 min, lysed in NP-40 lysis buffer; immunoprecipitated with anti-EtpE-C-bound protein A agarose or control mouse IgG; Western blot with anti-DNase X

| Molecule | binding [1] | binding [2] | binding [3] | binding [4] | binding [5] | binding [6] |
| --- | --- | --- | --- | --- | --- | --- |
| rEtpE-C, recombinant C-terminal fragment of EtpE (ECH1038) with a C-terminal histidine tag (E. chaffeensis (Arkansas strain)) (domain or fragment) | binds |  |  |  |  |  |
| B1 |  | binds | no binding | binds | no binding | binds |
